Reference: the supplement of paper PMC12823440, “Inhibitors supercharge kinase turnover through native proteolytic circuits” (Nature, 2025)
Structures can show the parent of a compound that is named as a salt. This is one part of the list. The calls rarely recur for the same compound in another form.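 In K562 cells expressing nanoluciferase-fused kinases, luminescence was recorded at 4 h intervals between 2 and 18 h, normalized as percent of control with DMSO at 100% and a positive control at 0%. A significant (2 sigma) signal drop marks a time point as decreased. The authors' rule for a hit is not shown and takes in more than the number of time points.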

Protein sequences, listed by entry. Tags and fused reporters are not part of them. Lines headed by an entry give the natural chain unless they say otherwise; changes in a name come on top.
UniProt P23458: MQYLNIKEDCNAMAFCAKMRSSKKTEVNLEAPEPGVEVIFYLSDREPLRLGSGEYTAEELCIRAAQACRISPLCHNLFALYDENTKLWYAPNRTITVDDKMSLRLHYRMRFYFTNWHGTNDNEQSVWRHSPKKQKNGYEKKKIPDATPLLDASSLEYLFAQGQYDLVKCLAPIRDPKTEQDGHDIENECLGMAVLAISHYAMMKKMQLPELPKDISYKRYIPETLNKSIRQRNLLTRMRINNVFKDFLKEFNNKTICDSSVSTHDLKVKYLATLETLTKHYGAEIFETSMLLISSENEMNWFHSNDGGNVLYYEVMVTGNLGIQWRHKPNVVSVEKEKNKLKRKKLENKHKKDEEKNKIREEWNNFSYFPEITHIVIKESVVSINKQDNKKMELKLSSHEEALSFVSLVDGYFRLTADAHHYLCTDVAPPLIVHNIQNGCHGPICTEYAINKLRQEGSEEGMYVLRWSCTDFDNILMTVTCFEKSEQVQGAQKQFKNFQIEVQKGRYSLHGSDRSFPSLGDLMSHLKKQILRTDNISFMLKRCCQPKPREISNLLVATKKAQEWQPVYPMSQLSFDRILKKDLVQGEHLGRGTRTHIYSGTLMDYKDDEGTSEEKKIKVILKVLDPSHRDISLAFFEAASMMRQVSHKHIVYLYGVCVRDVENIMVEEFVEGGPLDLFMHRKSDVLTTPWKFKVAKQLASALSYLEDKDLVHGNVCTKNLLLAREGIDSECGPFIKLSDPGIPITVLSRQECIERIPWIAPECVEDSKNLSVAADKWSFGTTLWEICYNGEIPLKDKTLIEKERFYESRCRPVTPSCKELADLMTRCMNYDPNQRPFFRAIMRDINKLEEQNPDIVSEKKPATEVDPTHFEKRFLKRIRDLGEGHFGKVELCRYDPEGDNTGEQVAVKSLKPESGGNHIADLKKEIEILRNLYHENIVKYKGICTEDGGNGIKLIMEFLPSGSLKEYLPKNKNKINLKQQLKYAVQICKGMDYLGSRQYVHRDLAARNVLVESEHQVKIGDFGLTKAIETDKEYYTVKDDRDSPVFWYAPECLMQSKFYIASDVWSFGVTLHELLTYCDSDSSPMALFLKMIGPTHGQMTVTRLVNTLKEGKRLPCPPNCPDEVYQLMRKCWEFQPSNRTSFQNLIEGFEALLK
UniProt P53667: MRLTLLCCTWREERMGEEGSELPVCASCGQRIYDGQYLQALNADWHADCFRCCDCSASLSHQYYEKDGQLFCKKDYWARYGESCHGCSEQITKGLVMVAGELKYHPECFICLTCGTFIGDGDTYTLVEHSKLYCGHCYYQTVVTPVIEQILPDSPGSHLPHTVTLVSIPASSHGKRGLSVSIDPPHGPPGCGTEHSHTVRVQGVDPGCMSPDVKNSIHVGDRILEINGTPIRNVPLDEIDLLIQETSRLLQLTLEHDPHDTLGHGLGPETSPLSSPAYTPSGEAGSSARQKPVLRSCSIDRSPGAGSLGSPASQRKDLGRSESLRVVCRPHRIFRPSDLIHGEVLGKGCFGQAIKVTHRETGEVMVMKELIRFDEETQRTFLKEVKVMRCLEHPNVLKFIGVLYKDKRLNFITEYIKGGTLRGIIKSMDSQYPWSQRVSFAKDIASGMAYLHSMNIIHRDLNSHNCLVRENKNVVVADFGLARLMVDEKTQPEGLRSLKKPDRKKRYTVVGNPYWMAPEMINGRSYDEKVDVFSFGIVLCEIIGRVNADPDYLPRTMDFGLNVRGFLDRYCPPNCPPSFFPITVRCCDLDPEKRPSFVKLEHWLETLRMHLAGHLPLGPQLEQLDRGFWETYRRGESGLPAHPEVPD
UniProt Q8IWU2: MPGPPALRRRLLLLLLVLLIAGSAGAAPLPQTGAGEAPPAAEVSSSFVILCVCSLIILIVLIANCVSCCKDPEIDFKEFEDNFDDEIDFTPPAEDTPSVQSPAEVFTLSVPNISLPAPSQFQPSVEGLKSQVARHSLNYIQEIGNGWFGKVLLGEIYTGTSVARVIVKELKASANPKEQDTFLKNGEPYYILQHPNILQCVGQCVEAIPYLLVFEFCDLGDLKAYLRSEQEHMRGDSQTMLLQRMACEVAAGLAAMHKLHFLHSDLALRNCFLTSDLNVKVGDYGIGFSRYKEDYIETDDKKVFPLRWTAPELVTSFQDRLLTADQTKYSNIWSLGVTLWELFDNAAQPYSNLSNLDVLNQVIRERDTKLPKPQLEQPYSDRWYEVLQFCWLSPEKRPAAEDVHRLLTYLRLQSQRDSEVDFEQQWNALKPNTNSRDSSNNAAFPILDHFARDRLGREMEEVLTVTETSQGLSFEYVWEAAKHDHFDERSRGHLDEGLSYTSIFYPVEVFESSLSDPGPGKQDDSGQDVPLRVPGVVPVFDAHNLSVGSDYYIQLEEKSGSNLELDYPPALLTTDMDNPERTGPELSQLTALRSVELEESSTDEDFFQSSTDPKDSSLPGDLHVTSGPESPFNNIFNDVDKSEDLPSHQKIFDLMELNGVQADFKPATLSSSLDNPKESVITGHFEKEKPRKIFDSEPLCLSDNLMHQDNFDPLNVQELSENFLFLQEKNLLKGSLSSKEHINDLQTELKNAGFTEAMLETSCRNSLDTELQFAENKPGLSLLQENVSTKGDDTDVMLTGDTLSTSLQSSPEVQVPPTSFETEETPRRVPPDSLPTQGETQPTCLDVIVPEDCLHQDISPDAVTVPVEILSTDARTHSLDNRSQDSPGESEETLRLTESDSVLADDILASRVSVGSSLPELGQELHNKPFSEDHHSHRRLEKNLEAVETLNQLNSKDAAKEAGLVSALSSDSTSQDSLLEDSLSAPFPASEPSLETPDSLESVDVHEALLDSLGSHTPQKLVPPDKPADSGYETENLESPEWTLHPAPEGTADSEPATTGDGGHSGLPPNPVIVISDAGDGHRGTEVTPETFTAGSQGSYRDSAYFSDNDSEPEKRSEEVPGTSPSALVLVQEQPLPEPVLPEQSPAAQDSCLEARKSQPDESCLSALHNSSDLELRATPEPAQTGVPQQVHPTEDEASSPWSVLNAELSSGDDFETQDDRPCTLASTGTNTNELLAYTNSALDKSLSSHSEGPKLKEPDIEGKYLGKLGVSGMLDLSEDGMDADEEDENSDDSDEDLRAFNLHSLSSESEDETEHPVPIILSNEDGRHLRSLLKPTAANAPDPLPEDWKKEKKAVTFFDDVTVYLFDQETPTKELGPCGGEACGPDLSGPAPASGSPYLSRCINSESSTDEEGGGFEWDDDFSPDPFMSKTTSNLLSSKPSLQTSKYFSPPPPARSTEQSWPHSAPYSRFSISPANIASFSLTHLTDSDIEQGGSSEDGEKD
UniProt P07948: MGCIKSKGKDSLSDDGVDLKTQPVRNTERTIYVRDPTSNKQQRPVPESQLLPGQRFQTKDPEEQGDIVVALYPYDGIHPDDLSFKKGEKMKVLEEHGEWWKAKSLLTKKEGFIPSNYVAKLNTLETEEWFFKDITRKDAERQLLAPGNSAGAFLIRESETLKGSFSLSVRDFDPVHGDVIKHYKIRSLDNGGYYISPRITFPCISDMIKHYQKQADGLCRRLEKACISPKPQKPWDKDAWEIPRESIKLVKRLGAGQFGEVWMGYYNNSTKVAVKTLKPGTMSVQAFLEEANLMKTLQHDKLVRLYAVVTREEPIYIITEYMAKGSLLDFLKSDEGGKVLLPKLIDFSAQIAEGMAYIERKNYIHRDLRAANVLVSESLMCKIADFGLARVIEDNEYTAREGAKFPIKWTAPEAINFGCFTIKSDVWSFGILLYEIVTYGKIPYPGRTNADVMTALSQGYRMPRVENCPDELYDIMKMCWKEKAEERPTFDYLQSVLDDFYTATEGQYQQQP
UniProt P31152, whole entry: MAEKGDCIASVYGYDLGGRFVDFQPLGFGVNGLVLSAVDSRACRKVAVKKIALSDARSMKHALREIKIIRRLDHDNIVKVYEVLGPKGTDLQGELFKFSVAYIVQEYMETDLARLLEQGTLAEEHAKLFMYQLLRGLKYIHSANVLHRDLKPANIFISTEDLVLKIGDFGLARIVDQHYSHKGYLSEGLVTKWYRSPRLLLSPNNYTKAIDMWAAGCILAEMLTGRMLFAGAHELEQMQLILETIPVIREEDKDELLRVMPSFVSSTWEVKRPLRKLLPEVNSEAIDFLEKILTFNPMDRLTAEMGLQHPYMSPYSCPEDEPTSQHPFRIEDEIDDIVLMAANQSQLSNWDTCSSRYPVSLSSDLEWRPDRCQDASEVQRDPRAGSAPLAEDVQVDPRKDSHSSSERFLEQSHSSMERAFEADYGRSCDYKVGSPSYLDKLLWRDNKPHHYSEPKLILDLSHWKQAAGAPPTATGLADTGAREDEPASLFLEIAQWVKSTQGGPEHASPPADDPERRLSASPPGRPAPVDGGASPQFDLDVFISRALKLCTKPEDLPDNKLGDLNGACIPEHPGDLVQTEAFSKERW
UniProt P49137, whole entry, looked up: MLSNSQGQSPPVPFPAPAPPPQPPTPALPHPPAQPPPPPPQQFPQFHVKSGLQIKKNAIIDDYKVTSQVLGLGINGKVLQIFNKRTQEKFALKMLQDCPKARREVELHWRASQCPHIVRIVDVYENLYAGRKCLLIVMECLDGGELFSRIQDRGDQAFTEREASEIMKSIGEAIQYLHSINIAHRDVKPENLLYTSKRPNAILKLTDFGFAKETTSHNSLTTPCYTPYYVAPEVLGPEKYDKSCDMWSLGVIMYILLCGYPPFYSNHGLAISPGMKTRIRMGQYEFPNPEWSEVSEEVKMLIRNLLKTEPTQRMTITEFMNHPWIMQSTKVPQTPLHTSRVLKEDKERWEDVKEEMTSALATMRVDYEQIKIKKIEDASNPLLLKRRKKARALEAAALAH
UniProt Q16288, whole entry, looked up: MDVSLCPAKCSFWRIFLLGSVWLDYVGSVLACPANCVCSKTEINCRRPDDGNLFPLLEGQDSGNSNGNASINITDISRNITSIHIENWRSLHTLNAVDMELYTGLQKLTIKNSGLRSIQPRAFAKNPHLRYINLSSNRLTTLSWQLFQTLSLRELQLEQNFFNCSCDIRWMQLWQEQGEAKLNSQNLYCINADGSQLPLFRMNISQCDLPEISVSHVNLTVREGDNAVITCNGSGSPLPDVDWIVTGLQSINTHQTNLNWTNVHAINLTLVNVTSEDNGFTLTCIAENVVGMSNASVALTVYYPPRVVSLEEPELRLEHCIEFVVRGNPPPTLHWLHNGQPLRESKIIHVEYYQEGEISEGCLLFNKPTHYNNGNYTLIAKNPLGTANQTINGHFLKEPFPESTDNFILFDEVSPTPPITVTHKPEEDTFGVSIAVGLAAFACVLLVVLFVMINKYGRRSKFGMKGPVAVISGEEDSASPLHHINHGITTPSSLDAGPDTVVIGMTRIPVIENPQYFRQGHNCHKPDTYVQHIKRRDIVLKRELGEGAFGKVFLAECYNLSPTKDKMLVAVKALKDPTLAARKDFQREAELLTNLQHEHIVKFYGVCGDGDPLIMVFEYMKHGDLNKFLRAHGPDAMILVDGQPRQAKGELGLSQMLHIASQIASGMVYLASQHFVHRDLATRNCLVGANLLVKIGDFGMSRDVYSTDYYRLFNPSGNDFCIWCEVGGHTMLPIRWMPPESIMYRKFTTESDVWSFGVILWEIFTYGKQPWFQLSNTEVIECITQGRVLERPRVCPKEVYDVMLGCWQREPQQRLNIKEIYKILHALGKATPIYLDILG
UniProt O96013: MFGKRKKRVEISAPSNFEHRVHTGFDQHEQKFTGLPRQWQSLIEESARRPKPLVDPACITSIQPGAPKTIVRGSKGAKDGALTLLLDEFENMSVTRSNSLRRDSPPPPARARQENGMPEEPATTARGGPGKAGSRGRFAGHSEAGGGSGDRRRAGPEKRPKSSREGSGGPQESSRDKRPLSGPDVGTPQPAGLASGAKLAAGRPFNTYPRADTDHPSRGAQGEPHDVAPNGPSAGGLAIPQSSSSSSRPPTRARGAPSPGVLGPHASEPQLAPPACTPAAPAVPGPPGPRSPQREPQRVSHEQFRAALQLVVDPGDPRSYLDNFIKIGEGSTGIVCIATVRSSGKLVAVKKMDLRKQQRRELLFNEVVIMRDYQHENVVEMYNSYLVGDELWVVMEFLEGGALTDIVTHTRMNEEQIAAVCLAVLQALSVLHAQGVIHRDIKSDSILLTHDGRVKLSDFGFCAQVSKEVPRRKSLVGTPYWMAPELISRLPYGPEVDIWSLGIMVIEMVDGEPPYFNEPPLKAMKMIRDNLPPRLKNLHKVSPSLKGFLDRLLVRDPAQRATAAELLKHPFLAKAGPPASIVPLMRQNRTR
UniProt Q96KB5: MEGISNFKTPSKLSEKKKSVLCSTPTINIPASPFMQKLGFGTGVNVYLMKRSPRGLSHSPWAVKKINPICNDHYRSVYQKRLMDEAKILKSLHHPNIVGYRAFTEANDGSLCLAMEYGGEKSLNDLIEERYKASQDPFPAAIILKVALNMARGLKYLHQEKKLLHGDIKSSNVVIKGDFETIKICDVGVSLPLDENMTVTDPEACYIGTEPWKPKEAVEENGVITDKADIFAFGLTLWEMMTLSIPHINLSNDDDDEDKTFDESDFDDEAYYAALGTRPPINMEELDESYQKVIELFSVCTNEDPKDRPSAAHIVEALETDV

How the values were obtained:
Assay in all cases: kinase-Nluc reporter destabilization hit call (1 = scored as downregulated) (binary); higher = compound decreases kinase abundance
Conditions in all cases: K562; 2-18 h
IRAK3 = IRAK3 (UniProt Q9Y616)
JAK1 = JAK1 (UniProt P23458)
LCK = LCK (UniProt P06239)
LIMK1 = LIMK1 (UniProt P53667)
LIMK2 = LIMK2 (UniProt P53671)
LMTK2 = LMTK2 (UniProt Q8IWU2)
LYN = LYN (UniProt P07948)
MAP2K1 = MAP2K1 (UniProt Q02750)
MAP2K2 = MAP2K2 (UniProt P36507)
MAP4K2 = MAP4K2 (UniProt Q12851)
MAPK1 = MAPK1 (UniProt P28482)
MAPK4 = MAPK4 (UniProt P31152)
MAPKAPK2 = MAPKAPK2 (UniProt P49137)
MKNK1 = MKNK1 (UniProt Q9BUB5)
NTRK2 = NTRK2 (UniProt Q16620)
NTRK3 = NTRK3 (UniProt Q16288)
PAK4 = PAK4 (UniProt O96013)
PBK = PBK (UniProt Q96KB5)
PDGFRB = PDGFRB (UniProt P09619)
PDK1 = PDK1 (UniProt Q15118)

Measured: kinase-Nluc reporter destabilization hit call

CC(C)c1cccc(C(C)C)c1N1C(=O)c2ccc(N)cc2C1=O (2.5 µM)
inactive: IRAK3 = 0 | JAK1 = 0 | LCK 0 | LIMK1 = 0 | LIMK2 = 0 | LMTK2 = 0 | LYN 0 | MAP2K1 = 0 | MAP2K2 = 0 | MAP4K2 = 0 | MAPK1 = 0 | MAPK4 = 0 | MAPKAPK2 = 0 | MKNK1 = 0 | NTRK2 = 0 | NTRK3 = 0 | PAK4 = 0 | PBK 0 | PDGFRB 0 | PDK1 = 0

Oc1cc(O)c2c(c1)OC1(c3ccc(O)c(O)c3)Oc3cc(O)c4c(c3C2C1O)OC(c1ccc(O)c(O)c1)C(O)C4 (stereo not given) [Procyanidin A1] (10 µM)
inactive: IRAK3 = 0 | JAK1 = 0 | LCK 0 | LIMK1 = 0 | LIMK2 = 0 | LMTK2 = 0 | LYN 0 | MAP2K1 = 0 | MAP2K2 = 0 | MAP4K2 = 0 | MAPK1 = 0 | MAPK4 = 0 | MAPKAPK2 = 0 | MKNK1 = 0 | NTRK2 = 0 | NTRK3 = 0 | PAK4 = 0 | PBK 0 | PDGFRB 0 | PDK1 = 0

NC(=O)c1cnc2[nH]ccc2c1N[C@@H]1[C@@H]2CC3C[C@H]1C[C@@](O)(C3)C2 [Peficitinib] (10 µM)
inactive: IRAK3 = 0 | JAK1 = 0 | LCK 0 | LIMK1 = 0 | LIMK2 = 0 | LMTK2 = 0 | LYN 0 | MAP2K1 = 0 | MAP2K2 = 0 | MAP4K2 = 0 | MAPK1 = 0 | MAPK4 = 0 | MAPKAPK2 = 0 | MKNK1 = 0 | NTRK2 = 0 | NTRK3 = 0 | PAK4 = 0 | PBK 0 | PDGFRB 0 | PDK1 = 0

C[C@@H]1CCNC(=O)c2cc3ccc(C(=O)Nc4nc5ccccc5n4CCCN(C)C)cc3n21 (10 µM)
inactive: IRAK3 = 0 | JAK1 = 0 | LCK 0 | LIMK1 = 0 | LIMK2 = 0 | LMTK2 = 0 | LYN 0 | MAP2K1 = 0 | MAP2K2 = 0 | MAP4K2 = 0 | MAPK1 = 0 | MAPK4 = 0 | MAPKAPK2 = 0 | MKNK1 = 0 | NTRK2 = 0 | NTRK3 = 0 | PAK4 = 0 | PBK 0 | PDGFRB 0 | PDK1 = 0

O=c1cc(-c2cccc3c2Sc2ccccc2S3)oc(N2CCOCC2)c1 (10 µM)
inactive: IRAK3 = 0 | JAK1 = 0 | LCK 0 | LIMK1 = 0 | LIMK2 = 0 | LMTK2 = 0 | LYN 0 | MAP2K1 = 0 | MAP2K2 = 0 | MAP4K2 = 0 | MAPK1 = 0 | MAPK4 = 0 | MAPKAPK2 = 0 | MKNK1 = 0 | NTRK2 = 0 | NTRK3 = 0 | PAK4 = 0 | PBK 0 | PDGFRB 0 | PDK1 = 0

CN1CC[C@@H](c2c(O)cc(O)c3c(=O)cc(-c4ccc(C(F)(F)F)cc4Cl)oc23)[C@@H]1CO [Voruciclib (hydrochloride)] (10 µM)
inactive: IRAK3 = 0 | JAK1 = 0 | LCK 0 | LIMK1 = 0 | LIMK2 = 0 | LMTK2 = 0 | LYN 0 | MAP2K1 = 0 | MAP2K2 = 0 | MAP4K2 = 0 | MAPK1 = 0 | MAPK4 = 0 | MAPKAPK2 = 0 | MKNK1 = 0 | NTRK2 = 0 | NTRK3 = 0 | PAK4 = 0 | PBK 0 | PDGFRB 0 | PDK1 = 0

O=C(Nc1nc2ccc(NC(=O)C34CC5CC(CC(C5)C3)C4)cc2s1)c1ccccc1 (10 µM)
inactive: IRAK3 = 0 | JAK1 = 0 | LCK 0 | LIMK1 = 0 | LIMK2 = 0 | LMTK2 = 0 | LYN 0 | MAP2K1 = 0 | MAP2K2 = 0 | MAP4K2 = 0 | MAPK1 = 0 | MAPK4 = 0 | MAPKAPK2 = 0 | MKNK1 = 0 | NTRK2 = 0 | NTRK3 = 0 | PAK4 = 0 | PBK 0 | PDGFRB 0 | PDK1 = 0

Cn1cc(-c2c[nH]c3ncnc(N4CCOCC4)c23)cc1C#N (10 µM)
inactive: IRAK3 = 0 | JAK1 = 0 | LCK 0 | LIMK1 = 0 | LIMK2 = 0 | LMTK2 = 0 | LYN 0 | MAP2K1 = 0 | MAP2K2 = 0 | MAP4K2 = 0 | MAPK1 = 0 | MAPK4 = 0 | MAPKAPK2 = 0 | MKNK1 = 0 | NTRK2 = 0 | NTRK3 = 0 | PAK4 = 0 | PBK 0 | PDGFRB 0 | PDK1 = 0

Cn1ncc2cc(-c3cnc(N)c(Cl)c3N3CCC4(CCNC4=O)CC3)ccc21 (10 µM)
inactive: IRAK3 = 0 | JAK1 = 0 | LCK 0 | LIMK1 = 0 | LIMK2 = 0 | LMTK2 = 0 | LYN 0 | MAP2K1 = 0 | MAP2K2 = 0 | MAP4K2 = 0 | MAPK1 = 0 | MAPK4 = 0 | MAPKAPK2 = 0 | MKNK1 = 0 | NTRK2 = 0 | NTRK3 = 0 | PAK4 = 0 | PBK 0 | PDGFRB 0 | PDK1 = 0

O=C(CNc1cccc(Cl)c1)NC1CCCN(c2ncnc3[nH]ccc23)C1 (stereo not given) (10 µM)
inactive: IRAK3 = 0 | JAK1 = 0 | LCK 0 | LIMK1 = 0 | LIMK2 = 0 | LMTK2 = 0 | LYN 0 | MAP2K1 = 0 | MAP2K2 = 0 | MAP4K2 = 0 | MAPK1 = 0 | MAPK4 = 0 | MAPKAPK2 = 0 | MKNK1 = 0 | NTRK2 = 0 | NTRK3 = 0 | PAK4 = 0 | PBK 0 | PDGFRB 0 | PDK1 = 0

C[C@@H]1CC(=O)c2c(ccc3c2C(=O)c2cccc(O)c2C3=O)C1 [Ochromycinone] (10 µM)
inactive: IRAK3 = 0 | JAK1 = 0 | LCK 0 | LIMK1 = 0 | LIMK2 = 0 | LMTK2 = 0 | LYN 0 | MAP2K1 = 0 | MAP2K2 = 0 | MAP4K2 = 0 | MAPK1 = 0 | MAPK4 = 0 | MAPKAPK2 = 0 | MKNK1 = 0 | NTRK2 = 0 | NTRK3 = 0 | PAK4 = 0 | PBK 0 | PDGFRB 0 | PDK1 = 0

CC/C(=N\NC(=O)c1ccnc(NCCCN2CCOCC2)c1)c1ccc(Cl)cc1O (2.5 µM)
inactive: IRAK3 = 0 | JAK1 = 0 | LCK 0 | LIMK1 = 0 | LIMK2 = 0 | LMTK2 = 0 | LYN 0 | MAP2K1 = 0 | MAP2K2 = 0 | MAP4K2 = 0 | MAPK1 = 0 | MAPK4 = 0 | MAPKAPK2 = 0 | MKNK1 = 0 | NTRK2 = 0 | NTRK3 = 0 | PAK4 = 0 | PBK 0 | PDGFRB 0 | PDK1 = 0

Part of the list above in order of heavy-atom count, rising:
Cn1ncc2cc(-c3cnc(N)c(Cl)c3N3CCC4(CCNC4=O)CC3)ccc21 (10 µM)
inactive: IRAK3 = 0 | JAK1 = 0 | LCK 0 | LIMK1 = 0 | LIMK2 = 0 | LMTK2 = 0 | LYN 0 | MAP2K1 = 0 | MAP2K2 = 0 | MAP4K2 = 0 | MAPK1 = 0 | MAPK4 = 0 | MAPKAPK2 = 0 | MKNK1 = 0 | NTRK2 = 0 | NTRK3 = 0 | PAK4 = 0 | PBK 0 | PDGFRB 0 | PDK1 = 0

O=C(Nc1nc2ccc(NC(=O)C34CC5CC(CC(C5)C3)C4)cc2s1)c1ccccc1 (10 µM)
inactive: IRAK3 = 0 | JAK1 = 0 | LCK 0 | LIMK1 = 0 | LIMK2 = 0 | LMTK2 = 0 | LYN 0 | MAP2K1 = 0 | MAP2K2 = 0 | MAP4K2 = 0 | MAPK1 = 0 | MAPK4 = 0 | MAPKAPK2 = 0 | MKNK1 = 0 | NTRK2 = 0 | NTRK3 = 0 | PAK4 = 0 | PBK 0 | PDGFRB 0 | PDK1 = 0

Oc1cc(O)c2c(c1)OC1(c3ccc(O)c(O)c3)Oc3cc(O)c4c(c3C2C1O)OC(c1ccc(O)c(O)c1)C(O)C4 (stereo not given) [Procyanidin A1] (10 µM)
inactive: IRAK3 = 0 | JAK1 = 0 | LCK 0 | LIMK1 = 0 | LIMK2 = 0 | LMTK2 = 0 | LYN 0 | MAP2K1 = 0 | MAP2K2 = 0 | MAP4K2 = 0 | MAPK1 = 0 | MAPK4 = 0 | MAPKAPK2 = 0 | MKNK1 = 0 | NTRK2 = 0 | NTRK3 = 0 | PAK4 = 0 | PBK 0 | PDGFRB 0 | PDK1 = 0

Further structures follow:

Cc1cccc(-c2[nH]c(C(C)(C)C)nc2-c2ccc3nccnc3c2)n1 (10 µM)
inactive: IRAK3 = 0 | JAK1 = 0 | LCK 0 | LIMK1 = 0 | LIMK2 = 0 | LMTK2 = 0 | LYN 0 | MAP2K1 = 0 | MAP2K2 = 0 | MAP4K2 = 0 | MAPK1 = 0 | MAPK4 = 0 | MAPKAPK2 = 0 | MKNK1 = 0 | NTRK2 = 0 | NTRK3 = 0 | PAK4 = 0 | PBK 0 | PDGFRB 0 | PDK1 = 0

COc1cc(-c2cn[nH]c2)ccc1C(=O)Nc1ccc2c(c1)CCNCC2 (10 µM)
inactive: IRAK3 = 0 | JAK1 = 0 | LCK 0 | LIMK1 = 0 | LIMK2 = 0 | LMTK2 = 0 | LYN 0 | MAP2K1 = 0 | MAP2K2 = 0 | MAP4K2 = 0 | MAPK1 = 0 | MAPK4 = 0 | MAPKAPK2 = 0 | MKNK1 = 0 | NTRK2 = 0 | NTRK3 = 0 | PAK4 = 0 | PBK 0 | PDGFRB 0 | PDK1 = 0

COc1c(Nc2cc(C)[nH]n2)nc(Sc2ccc(S(=O)(=O)Cc3cccc([N+](=O)[O-])c3F)cc2F)nc1N1CCCCC1 [Centrinone-B] (2.5 µM)
inactive: IRAK3 = 0 | JAK1 = 0 | LCK 0 | LIMK1 = 0 | LIMK2 = 0 | LMTK2 = 0 | LYN 0 | MAP2K1 = 0 | MAP2K2 = 0 | MAP4K2 = 0 | MAPK1 = 0 | MAPK4 = 0 | MAPKAPK2 = 0 | MKNK1 = 0 | NTRK2 = 0 | NTRK3 = 0 | PAK4 = 0 | PBK 0 | PDGFRB 0 | PDK1 = 0

O=C(Nc1nc2ccccc2[nH]1)c1cccc([N+](=O)[O-])c1 [IRAK-4 protein kinase inhibitor 2] (10 µM)
inactive: IRAK3 = 0 | JAK1 = 0 | LCK 0 | LIMK1 = 0 | LIMK2 = 0 | LMTK2 = 0 | LYN 0 | MAP2K1 = 0 | MAP2K2 = 0 | MAP4K2 = 0 | MAPK1 = 0 | MAPK4 = 0 | MAPKAPK2 = 0 | MKNK1 = 0 | NTRK2 = 0 | NTRK3 = 0 | PAK4 = 0 | PBK 0 | PDGFRB 0 | PDK1 = 0

COc1cc2ncnc(Nc3ccc(F)c(Cl)c3)c2cc1NC(=O)/C=C/CN1CCCCC1 [Dacomitinib] (10 µM)
inactive: IRAK3 = 0 | JAK1 = 0 | LCK 0 | LIMK1 = 0 | LIMK2 = 0 | LMTK2 = 0 | LYN 0 | MAP2K1 = 0 | MAP2K2 = 0 | MAP4K2 = 0 | MAPK1 = 0 | MAPK4 = 0 | MAPKAPK2 = 0 | MKNK1 = 0 | NTRK2 = 0 | NTRK3 = 0 | PAK4 = 0 | PBK 0 | PDGFRB 0 | PDK1 = 0

N#Cc1ccnc(Nc2cc(C3CCN(C4COC4)CC3)cc(N3CCC(F)(F)C3)n2)c1 (2.5 µM)
inactive: IRAK3 = 0 | JAK1 = 0 | LCK 0 | LIMK1 = 0 | LIMK2 = 0 | LMTK2 = 0 | LYN 0 | MAP2K1 = 0 | MAP2K2 = 0 | MAP4K2 = 0 | MAPK1 = 0 | MAPK4 = 0 | MAPKAPK2 = 0 | MKNK1 = 0 | NTRK2 = 0 | NTRK3 = 0 | PAK4 = 0 | PBK 0 | PDGFRB 0 | PDK1 = 0
